Assay results: paper PMC5286501

Target: ERAMOSA (ERA), yeast hybrid fusion (Antirrhinum majus)
Assay: two-hybrid; yeast two-hybrid, GAL4 system (pGADT7, pGBKT7), ERA as bait, strain AH109, 28 °C, medium lacking leucine, tryptophan, adenine and histidine with 1, 2 and 5 mM 3-AT

binding: binds
Sequence: SQUAMOSA (SQUA), yeast two-hybrid fusion (from UniProt Q38742 1-248)

These are yes or no findings as the source states them, for the method shown. Binding calls can cover weak binding; strength is not graded here.
